{"source": "paper PMC12053661", "molecular_target": "T1, Spt6-3XFLAG (wild type) (S. cerevisiae (endogenous in strain S288c)) (UniProt P23615)", "T1 sequence": "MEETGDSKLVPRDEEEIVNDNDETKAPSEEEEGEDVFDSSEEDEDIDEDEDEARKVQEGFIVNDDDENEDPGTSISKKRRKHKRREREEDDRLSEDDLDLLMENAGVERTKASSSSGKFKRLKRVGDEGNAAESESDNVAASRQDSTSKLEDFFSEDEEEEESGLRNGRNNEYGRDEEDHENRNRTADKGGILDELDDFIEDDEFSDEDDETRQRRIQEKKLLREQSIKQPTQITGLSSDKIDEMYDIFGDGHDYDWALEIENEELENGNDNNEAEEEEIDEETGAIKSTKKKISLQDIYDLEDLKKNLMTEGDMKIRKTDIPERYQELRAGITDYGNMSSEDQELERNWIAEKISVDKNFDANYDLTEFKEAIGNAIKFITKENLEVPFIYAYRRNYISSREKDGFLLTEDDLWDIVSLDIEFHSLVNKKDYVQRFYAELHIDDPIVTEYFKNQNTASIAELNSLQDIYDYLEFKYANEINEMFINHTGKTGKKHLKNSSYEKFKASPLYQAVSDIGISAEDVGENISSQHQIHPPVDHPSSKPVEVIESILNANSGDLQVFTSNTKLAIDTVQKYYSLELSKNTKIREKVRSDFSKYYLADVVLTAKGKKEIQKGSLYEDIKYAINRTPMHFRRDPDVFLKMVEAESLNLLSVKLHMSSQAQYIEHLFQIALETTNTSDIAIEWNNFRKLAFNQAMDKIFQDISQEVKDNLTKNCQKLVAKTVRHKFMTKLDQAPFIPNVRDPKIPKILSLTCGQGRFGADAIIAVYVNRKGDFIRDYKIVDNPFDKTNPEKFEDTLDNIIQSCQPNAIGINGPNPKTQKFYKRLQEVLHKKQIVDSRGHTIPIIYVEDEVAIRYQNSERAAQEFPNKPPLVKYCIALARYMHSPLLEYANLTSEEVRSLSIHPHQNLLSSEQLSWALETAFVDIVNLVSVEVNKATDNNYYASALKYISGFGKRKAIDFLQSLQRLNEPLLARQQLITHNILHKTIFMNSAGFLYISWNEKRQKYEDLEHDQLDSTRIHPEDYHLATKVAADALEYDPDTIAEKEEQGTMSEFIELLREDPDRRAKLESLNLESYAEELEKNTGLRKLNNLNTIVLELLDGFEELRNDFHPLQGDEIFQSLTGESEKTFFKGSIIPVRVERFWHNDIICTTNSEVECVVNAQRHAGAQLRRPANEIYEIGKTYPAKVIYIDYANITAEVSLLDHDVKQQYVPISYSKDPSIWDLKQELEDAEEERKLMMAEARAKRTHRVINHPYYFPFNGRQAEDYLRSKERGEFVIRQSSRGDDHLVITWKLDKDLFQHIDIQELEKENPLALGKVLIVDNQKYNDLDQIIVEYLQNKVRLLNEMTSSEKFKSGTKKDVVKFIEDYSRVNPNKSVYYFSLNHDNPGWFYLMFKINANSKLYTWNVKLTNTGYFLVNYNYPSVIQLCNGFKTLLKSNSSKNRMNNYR", "experiment": "affinity purification with mass spectrometry; Spt6-3XFLAG captured from yeast lysate on FLAG agarose (lysis buffer 40 mM HEPES-KOH pH 7.5, 10% glycerol, 350 mM NaCl, 0.1% Tween-20; DNase I and heparin), eluted with FLAG peptide; TMT-labelled quantitative LC-MS/MS; strains WT, spt6-F249K, spn1-F267E, spn1-R263D, shifted to non-permissive temperature (37 °C)", "note": "Results are given in words; binding and its absence hold for the method and conditions named. Binding seen in cells or lysates may run through a third protein. Here binding means that the protein was enriched with, or labelled near, the bait; the list need not be complete. Tags and fused reporters may be left off the sequences shown."}
{"binder": "Spn1 (wild type) (protein, UniProt Q06505 1-410) MSTADQEQPKVVEATPEDGTASSQKSTINAENENTKQNQSMEPQETSKGTSNDTKDPDNGEKNEEAAIDENSNVEAAERKRKHISTDFSDDDLEKEEHNDQSLQPTVENRASKDRDSSATPSSRQELEEKLDRILKKPKVRRTRRDEDDLEQYLDEKILRLKDEMNIAAQLDIDTLNKRIETGDTSLIAMQKVKLLPKVVSVLSKANLADTILDNNLLQSVRIWLEPLPDGSLPSFEIQKSLFAALNDLPVKTEHLKESGLGRVVIFYTKSKRVEAQLARLAEKLIAEWTRPIIGASDNYRDKRIMQLEFDSEKLRKKSVMDSAKNRKKKSKSGEDPTSRGSSVQTLYEQAAARRNRAAAPAQTTTDYKYAPVSNLSAVPTNARAVGVGSTLNNSEMYKRLTSRLNKKHK", "values": [{"measurement": "binding", "value": "binds"}]}
